# Experimental data from PubChem BioAssay AID504467 (National Center for Advancing Translational Sciences (NCATS), 2011).
# Screen size: about 330,000 compounds; about 7,700 (2.3%) were called active. The inconclusive results got no clear call from the source; some entries with a clear call stand among them for comparison. Calls follow the shape of the dose curve; as a rule, active = well fitted inhibition curve with a large enough effect; inconclusive = small, poorly fitted or top-dose-only effect, or effect the other way; inactive = flat fitted curve, though single readings scatter. Where the call is inconclusive, the potency comes from a doubtful curve fit.
# Assay: qHTS screen for small molecules that inhibit ELG1-dependent DNA repair in human embryonic kidney (HEK293T) cells expressing luciferase-tagged ELG1; also: nearly all actives have a fitted effect of over 55% in size
# Settings: HEK293T ELG1-luciferase reporter, luminescence, 16 h, DNA damage induced by 5-fluorouridine; activity change, negative = inhibition: at 46.1 µM (top of the series)
# Outline: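 Quantitative HTS, concentration-response format. 2,000 cells/well co-treated with 5-fluorouridine and compound, 16 hr in 5% CO2 at 37 °C; ONE-Glo luminescence read after 30 min.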
# % is scaled to controls: 0 for no effect and ±100 for the full control effect; potency is read from the fitted curve at half-maximal effect.
SMILES,Potency,"activity change, negative = inhibition"
Cc1cc(C)nc(NC(=NCCc2c[nH]c3ccccc23)NC(=O)C(C)(C)C)n1,"inconclusive: 29.1 µM [inhibitor, single point]",–
COc1ccc(Cl)cc1NC(=O)CN1C(=O)NC(Cc2c[nH]c3ccccc23)C1=O (stereo unspecified),"inconclusive: 29.1 µM [inhibitor, single point]",–
O=C(c1ccc(CS(=O)Cc2ccccc2Cl)o1)N1CCN(C2CCCCC2)CC1 (stereo unspecified),–,inactive: 6.13%
c1ccn2c(SCc3ccc4c(c3)OCO4)nnc2c1,"inconclusive: 25.9 µM [activator, partial curve]",–
CCOc1ccc(CCNC(=O)c2ccc(=O)[nH]c2)cc1OCC,–,inactive: 10.3%
O=C(NCC1CCOCC1)C1CCC(=O)N(Cc2cccc(C(F)(F)F)c2)C1 (stereo unspecified),"inconclusive: 32.6 µM [activator, partial curve, poor fit]",–
Cc1oc(-c2ccc(Cl)cc2)nc1CN1CCCC(C(=O)NCc2cccnc2)C1 (stereo unspecified),active: 6.51 µM,–
CC(C(=O)Nc1ccc(Cl)cc1)N1C(=O)NC2(CCCC2)C1=O (stereo unspecified),–,inactive: -11.4%
CCOc1ccc(NC(=O)COc2ccccc2)c([N+](=O)[O-])c1,"inconclusive: 16.4 µM [activator, partial curve]",–
CCCCCCn1c(CN2CCN(C(=O)c3ccco3)CC2)nc2c1c(=O)n(C)c(=O)n2C,active: 13 µM,–
CC1=C(C(=O)Nc2ccccn2)C(c2ccc3c(c2)OCO3)C2=C(CC(C)(C)CC2=O)N1 (stereo unspecified),"inconclusive: 20.6 µM [activator, single point]",–
Cc1ccsc1-c1ccnc(-n2cccc2)n1,"inconclusive: 35.5 µM [activator, partial curve, poor fit]",–
CCCc1cc(=O)[nH]c(SCC(=O)C(C)(C)C)n1,–,inactive: 1.04%
COc1ccc(C(=O)C2CCCN(C(=O)c3ccc(CSC)o3)C2)cc1F (stereo unspecified),–,inactive: 4.62%
CN(C)Cc1c(C(=O)N/N=C/c2cccc(OCc3ccc(F)cc3)c2)nnn1-c1nonc1N,"inconclusive: 23.1 µM [activator, partial curve, poor fit]",–
O=C(O)c1cc(-c2c[nH]c3ccccc23)nc2cc3ccccc3cc12,"inconclusive: 18.3 µM [activator, partial curve]",–
CCCCCOc1ccc(CSCCNC(=S)Nc2ccccc2)cc1,"inconclusive: 23.1 µM [inhibitor, partial curve, poor fit]",–
COc1ccc(-n2c(COc3cccc(C)c3)nnc2SCC(=O)NCc2ccco2)cc1,"inconclusive: 25.1 µM [inhibitor, single point]",–
COc1cc(NC(=O)c2cc([N+](=O)[O-])ccc2NC(=O)CNC2CCCCC2C)cc(OC)c1 (stereo unspecified),"inconclusive: 18.3 µM [inhibitor, partial curve]",–
CCCn1c(SCC(=O)Nc2cccc(C)n2)nnc1-c1ccco1,"inconclusive: 11.6 µM [activator, partial curve, poor fit]",–
COc1ccc(NC(=O)CN(C)C(=O)c2ccccc2OC)cc1,"inconclusive: 0.164 µM [inhibitor, partial curve, poor fit]",–
O=C(N=Nc1c(O)[nH]c2ccccc12)c1cc(-c2cccs2)[nH]n1,"inconclusive: 23.1 µM [activator, partial curve]",–
CCN(C(=O)COC(=O)CSc1ccccc1)c1c(N)n(Cc2ccccc2)c(=O)[nH]c1=O,–,inactive: 1.93%

SMILES,Potency,"activity change, negative = inhibition"
COc1cc2c(cc1OC)C(C)N(C(=O)c1cccc([N+](=O)[O-])c1)CC2 (stereo unspecified),active: 18.3 µM,–
O=C(/C(C=Nc1cccc(C(F)(F)F)c1)=C(/O)c1ccco1)C(F)(F)F,"inconclusive: 16.4 µM [activator, partial curve]",–
O=c1[nH]c(SCc2nc3c(cnn3-c3ccccc3)c(=O)[nH]2)nc2ccccc12,"inconclusive: 4.61 µM [activator, full curve]",–
Cc1cc(C)nc(NC(=NCCc2c[nH]c3ccccc23)NC(=O)Nc2ccc(Cl)c(Cl)c2)n1,"inconclusive: 13 µM [inhibitor, partial curve, poor fit]",–
COc1ccccc1OCCNC(=O)Nc1cc(F)c(F)cc1Cl,–,inactive: -5.5%
CC(NC(=O)CN1C(=O)NC(C)(c2cccc3ccccc23)C1=O)c1ccccc1 (stereo unspecified),–,inactive: 7.09%
COc1ccc(/C=N/NC(=S)Nc2ccccc2)cc1COc1ccc(Br)cc1,–,inactive: -15.4%
O=C(NCc1ccccc1)NC1CCS(=O)(=O)C1 (stereo unspecified),–,inactive: -1.21%
CCCCSc1nc(C)c(C(C)=O)cc1C#N,"inconclusive: 20.6 µM [activator, partial curve]",–
CCC(=O)c1ccc(OC(=O)N2CCOCC2)cc1,"inconclusive: 20.6 µM [activator, partial curve]",–
Cc1nc2ccccc2c2oc(C(=O)NCc3ccc4c(c3)OCO4)cc12,"inconclusive: 17.8 µM [inhibitor, single point]",–
CCOC(=O)c1cc2sccc2n1CC(=O)OC(C)C,–,inactive: -4.69%
COc1cccc(C(=O)Nc2ccncc2)c1,–,inactive: -5.1%
O=P(c1ccccc1)(c1ccccc1)c1nc(-c2ccccc2)oc1NCc1ccccc1,"inconclusive: 29.1 µM [inhibitor, single point]",–
COc1ccc(C(=O)c2cc3c(cc2[N+](=O)[O-])OCCO3)cc1,"inconclusive: 20.6 µM [activator, partial curve, poor fit]",–
C=CCOc1ccc(CN(C)C(=O)C2CCCO2)cc1 (stereo unspecified),"inconclusive: 20.6 µM [activator, single point]",–
COc1ccc(-n2cc(-c3ccccc3)nc2SC)cc1,"inconclusive: 14.6 µM [activator, partial curve]",–
CC(CNC(=O)C(C)(C)C)NC(=O)C(C)(C)C (stereo unspecified),–,inactive: -5.88%
Cc1ccc(CNC(=O)CSc2nc3ccsc3c(=O)n2Cc2ccccn2)cc1,–,inactive: 22.1%
Cc1noc(C)c1-c1nnc(-c2ccc(OC(F)(F)F)cc2)o1,"inconclusive: 29.1 µM [activator, single point]",–
COC(=O)C(NNc1ccccc1)(NC(=O)c1ccc(F)cc1)C(F)(F)F (stereo unspecified),–,inactive: -14.4%
COc1cccc(/C=C/C(=O)N2CCN(S(=O)(=O)c3ccccc3)CC2)c1OC,–,inactive: 1.11%
Cc1ccc(NC(=S)NNC(=S)NC2CCCCC2)cc1,–,inactive: -0.597%

# Some of the entries so far, tab-delimited.
SMILES	Potency	activity change, negative = inhibition
CCCCSc1nc(C)c(C(C)=O)cc1C#N	inconclusive: 20.6 µM [activator, partial curve]	–
CCC(=O)c1ccc(OC(=O)N2CCOCC2)cc1	inconclusive: 20.6 µM [activator, partial curve]	–
